Test results published in patent publication US20190078093.
For at least one entry, the source does not settle the construct or the ends of the probe. For some of these results: Results from cells or extracts need not show a direct contact. For some of these results: Tags and fusion partners may be left off the protein sequences shown.

Tests used:
EpCAM = EpCAM (UniProt P16422); assay: SELEX; conditions: identified by library screening to recognize EpCAM; target verification protocol by crosslinking; label: biotin
[1] = biological target: Translational activator GCN1 (UniProt Q92616); assay: pull-down; conditions: VCaP exosomes; may be indirect; protein in an extract; label: 5' biotin; single-stranded DNA
VPS28 isoform 2 = assay: pull-down; conditions: VCaP exosomes; may be indirect; protein in an extract; label: 5' biotin; single-stranded DNA
[2] = biological target: T1, RNA-binding protein 3 (RBM3) (UniProt P98179); assay: pull-down; conditions: VCaP exosomes; may be indirect; protein in an extract; label: 5' biotin; single-stranded DNA
T1 sequence (looked up, limits assumed): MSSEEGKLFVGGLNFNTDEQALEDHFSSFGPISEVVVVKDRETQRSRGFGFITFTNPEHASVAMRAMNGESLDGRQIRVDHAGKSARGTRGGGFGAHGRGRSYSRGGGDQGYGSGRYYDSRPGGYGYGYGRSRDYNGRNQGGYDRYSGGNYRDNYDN

[3] = tested on: T2, Cleavage and polyadenylation specificity factor subunit 7 (CPSF7); assay: pull-down; conditions: VCaP exosomes; may be indirect; protein in an extract; label: 5' biotin; single-stranded DNA
T2 sequence (looked up, limits assumed): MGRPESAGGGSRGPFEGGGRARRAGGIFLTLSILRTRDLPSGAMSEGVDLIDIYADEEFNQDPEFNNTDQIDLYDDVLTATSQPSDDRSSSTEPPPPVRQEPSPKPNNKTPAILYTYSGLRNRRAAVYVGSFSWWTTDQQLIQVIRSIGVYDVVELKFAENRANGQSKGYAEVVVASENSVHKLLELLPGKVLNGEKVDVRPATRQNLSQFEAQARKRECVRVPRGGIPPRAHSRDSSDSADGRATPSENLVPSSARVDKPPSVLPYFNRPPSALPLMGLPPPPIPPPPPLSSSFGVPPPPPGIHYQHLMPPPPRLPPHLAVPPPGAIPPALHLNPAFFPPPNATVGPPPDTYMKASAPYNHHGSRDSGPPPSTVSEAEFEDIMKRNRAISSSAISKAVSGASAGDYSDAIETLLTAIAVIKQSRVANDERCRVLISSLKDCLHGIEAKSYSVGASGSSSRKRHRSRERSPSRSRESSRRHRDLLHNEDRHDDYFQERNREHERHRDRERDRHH

[4] = biological target: T3, Charged multivesicular body protein 4b (CHMP4B) (UniProt Q9H444); assay: pull-down; conditions: VCaP exosomes; may be indirect; protein in an extract; label: 5' biotin; single-stranded DNA
T3 sequence (looked up, limits assumed): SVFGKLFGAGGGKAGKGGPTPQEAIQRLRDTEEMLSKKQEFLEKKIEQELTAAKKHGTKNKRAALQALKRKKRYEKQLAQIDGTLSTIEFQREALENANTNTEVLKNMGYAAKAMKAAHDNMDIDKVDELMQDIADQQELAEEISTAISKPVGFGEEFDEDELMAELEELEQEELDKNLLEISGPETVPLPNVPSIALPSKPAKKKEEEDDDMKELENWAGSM

Syntenin-1 (SDCBP) = Syntenin-1 (SDCBP) (UniProt O00560); assay: pull-down; conditions: VCaP exosomes; may be indirect; protein in an extract; label: 5' biotin; single-stranded DNA
[5] = biological target: 60S ribosomal protein L30 (RPL30) (UniProt P62888); assay: pull-down; conditions: VCaP exosomes; may be indirect; protein in an extract; label: 5' biotin; single-stranded DNA
[6] = biological target: Charged multivesicular body protein 2a (CHMP2A) (UniProt O43633); assay: pull-down; conditions: VCaP exosomes; may be indirect; protein in an extract; label: 5' biotin; single-stranded DNA
[7] = biological target: 60S acidic ribosomal protein P1 (RPLP1) (UniProt P05386); assay: pull-down; conditions: VCaP exosomes; may be indirect; protein in an extract; label: 5' biotin; single-stranded DNA
[8] = biological target: T4, Charged multivesicular body protein 1b (CHMP1B) (UniProt Q7LBR1); assay: pull-down; conditions: VCaP exosomes; may be indirect; protein in an extract; label: 5' biotin; single-stranded DNA
T4 sequence (looked up, limits assumed): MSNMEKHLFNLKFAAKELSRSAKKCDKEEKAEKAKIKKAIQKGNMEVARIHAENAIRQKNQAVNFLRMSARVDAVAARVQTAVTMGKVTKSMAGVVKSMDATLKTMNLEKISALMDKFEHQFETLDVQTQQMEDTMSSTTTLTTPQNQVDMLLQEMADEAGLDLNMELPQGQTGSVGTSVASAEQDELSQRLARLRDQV

[9] = biological target: Polypyrimidine tract-binding protein 1 isoform 3 (PTBP1) (UniProt P26599); assay: pull-down; conditions: VCaP exosomes; may be indirect; protein in an extract; label: 5' biotin; single-stranded DNA
[10] = biological target: Latent-transforming growth factor beta-binding protein 2 (LTBP2) (UniProt Q14767); assay: pull-down; conditions: VCaP exosomes; may be indirect; protein in an extract; label: 5' biotin; single-stranded DNA
[11] = tested on: T5, Cold-inducible RNA-binding protein isoform 3 (CIRBP); assay: pull-down; conditions: VCaP exosomes; may be indirect; protein in an extract; label: 5' biotin; single-stranded DNA
T5 sequence (looked up, limits assumed): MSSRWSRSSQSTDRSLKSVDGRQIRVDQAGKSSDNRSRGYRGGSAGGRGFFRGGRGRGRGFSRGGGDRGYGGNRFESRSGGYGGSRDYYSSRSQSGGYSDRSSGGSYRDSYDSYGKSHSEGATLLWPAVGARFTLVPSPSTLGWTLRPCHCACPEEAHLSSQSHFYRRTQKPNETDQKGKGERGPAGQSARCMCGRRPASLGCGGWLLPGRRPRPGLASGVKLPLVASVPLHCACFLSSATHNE

Protein S100-A8 = Protein S100-A8 (UniProt P05109); assay: pull-down; conditions: VCaP exosomes; may be indirect; protein in an extract; label: 5' biotin; single-stranded DNA
[12] = biological target: DnaJ homolog subfamily A member 2 (DNAJA2) (UniProt O60884); assay: pull-down; conditions: VCaP exosomes; may be indirect; protein in an extract; label: 5' biotin; single-stranded DNA

AUCCAGAGUGACGCAGCAGUCUUUUCUGAUGGACACGUGGUGGUCUAGUAUCACUAAGCCACCGUGUCCA [CAR003]
selected: selection result (EpCAM)

CTAGCATGACTGCAGTACGTTACTTAATTGGGGGGGGGGATTCTGTTTTGTCTCTCTGTCTCTTATACACATCTGACGCTGCCGACGA [Sequence 7 (Table 25)]
binds: binding result [1] | binding result (VPS28 isoform 2) | binding result [2] | binding result [3] | binding result [4] | binding result (Syntenin-1 (SDCBP)) | binding result [5] | binding result [6] | binding result [7] | binding result [8] | binding result [9] | binding result [10] | binding result [11] | binding result (Protein S100-A8) | binding result [12]
